Reference: PubChem BioAssay AID330 (DTP/NCI, 2004)
The list is a part of this screen's results and no random one: it gathers tests that were run many times, whatever their T/C, doses with no T/C, and many T/C values between a quarter and a half above the control. Further doses and runs are listed elsewhere. T/C gives the treated animals as a percentage of the vehicle group. Some doses have a count of surviving animals in place of a T/C: the source holds a T/C of zero for them, seemingly a mark for toxic or unscored doses. Some survivor counts are full or nearly so, which does not show that the dose was tolerated: survival well below the control is almost never listed, so the zero probably covers shortened survival too. Survivors were counted at the toxicity check, usually on the fifth day, unless a day is given; later deaths do not show. Schedule codes are those of the source, read here as Q, the interval in days (D) or hours (H), X, the number of doses. Some entries were tested several times; the results are listed from low to high. For survival time, the PubChem record calls one and a half times the control and up active, and a quarter to a half above the control has no call in these data; cut-offs in other NCI protocols can differ. Some T/C values carry the count of animals alive at the toxicity check (mostly the fifth day); where none is given, no animal had died by that day. Signs of the kind (2×) count equal records among those shown.

System: P388 leukemia ip, CD2F1 mice, survival T/C
Test: NCI In Vivo Anticancer Drug Screen. Data for tumor model P388 Leukemia (intraperitoneal) in CD2F1 (CDF1) mice
Settings: T/C endpoint: median survival time, higher T/C = longer survival
[1] = dose: 200.0 mg/kg/injection, schedule: Q01DX005 (ip), vehicle: saline with Tween-80
[2] = dose: 100.0 mg/kg/injection, schedule: Q01DX005 (ip), vehicle: Klucel (hydroxypropylcellulose) (HPC)
[3] = dose: 200.0 mg/kg/injection, schedule: Q01DX005 (ip), vehicle: Klucel (hydroxypropylcellulose) (HPC)
[4] = dose: 4.0 mg/kg/injection, schedule: Q01DX009 (ip), vehicle: saline + alcohol
[5] = dose: 3.13 mg/kg/injection, schedule: Q01DX009 (ip), vehicle: Klucel (hydroxypropylcellulose) (HPC)

Structure (SMILES): Cc1ccc(C(=O)C(C#N)=Nc2ccc(N(C)C)cc2)cc1
- survivor count (dose: 25.0 mg/kg/injection, schedule: Q01DX005 (ip), vehicle: Klucel (hydroxypropylcellulose) (HPC)): 6 of 6

Structure (SMILES): CCC(O)CC1OC2(CCC1C)CC1OC(=O)/C=C\C(C)(O)C(O)C(C)C(O)C(OC3CC(OC)C(O)C(C)O3)C(O)C(C)(O)CCC/C=C/C3CC(C)COC3(O)CC(O2)C1C (stereo not drawn)
- survivor count (dose: 4.0 mg/kg/injection, schedule: Q01DX005 (ip), vehicle: saline + alcohol): 0 of 6

Structure (SMILES): CCOc1ccc2c(c1)[n+](=O)c1ccc(Cl)cc1n2[O-]
- T/C [1]: 126 % of control
- survivor count [1]: 6 of 6
- survivor count (dose: 400.0 mg/kg/injection, schedule: Q01DX005 (ip), vehicle: saline with Tween-80): 2 of 6 and 4 of 6

Structure (SMILES): c1ccc2c(c1)nnn1c3cnccc3nc21
- T/C (dose: 25.0 mg/kg/injection, schedule: Q01DX009 (ip), vehicle: saline with Tween-80): 126 % of control [5 of 6 alive]
- survivor count (dose: 50.0 mg/kg/injection, schedule: Q01DX009 (ip), vehicle: saline with Tween-80): 0 of 6

Structure (SMILES): CC1=C(C(N)=O)C(c2ccccc2)NC(=S)N1 (stereo not drawn)
- T/C (dose: 50.0 mg/kg/injection, schedule: Q01DX005 (ip), vehicle: Klucel (hydroxypropylcellulose) (HPC)): 94, 97, 99, 103 % of control (2×)
- T/C [2]: 98 and 100 % of control (3×)
- T/C [3]: 100, 101, 151 [4 of 5 alive], 167 % of control
- survivor count (dose: 400.0 mg/kg/injection, schedule: Q01DX005 (ip), vehicle: Klucel (hydroxypropylcellulose) (HPC)): 1 of 6, 2 of 6, 6 of 6

Structure (SMILES): CN1CCOC(c2ccccc2)c2ccsc2CC1 (stereo not drawn)
- survivor count (dose: 240.0 mg/kg/injection, schedule: Q01DX005 (ip), vehicle: saline with Tween-80): 2 of 6

Structure (SMILES): COC(=O)[C@@]12OC[C@]34[C@H]([C@@H](O)[C@@H]1O)[C@@]1(C)CC(=O)C(O)=C(C)[C@@H]1C[C@H]3OC(=O)[C@H](OC(=O)/C=C(/C)C(C)(C)O)[C@@H]24
- T/C (dose: 1.0 mg/kg/injection, schedule: Q01DX009 (ip), vehicle: saline + alcohol): 127 % of control
- T/C (dose: 2.0 mg/kg/injection, schedule: Q01DX009 (ip), vehicle: saline + alcohol): 100, 128, 141, 151 % of control
- T/C [4]: 116, 147, 150 % of control
- survivor count [4]: 3 of 6
- T/C (dose: 8.0 mg/kg/injection, schedule: Q01DX009 (ip), vehicle: saline + alcohol): 133 % of control
- survivor count (dose: 16.0 mg/kg/injection, schedule: Q01DX009 (ip), vehicle: saline + alcohol): 0 of 6 and 4 of 6
- survivor count (dose: 32.0 mg/kg/injection, schedule: Q01DX009 (ip), vehicle: saline + alcohol): 0 of 6

Structure (SMILES): CCCCCCOC(=O)c1ccccc1OP(=O)(N(C)C)N(C)C
- survivor count (dose: 200.0 mg/kg/injection, schedule: Q01DX005 (ip), vehicle: saline): 0 of 6

Structure (SMILES): CN=C(C)Nc1ccccc1OC
- survivor count (dose: 100.0 mg/kg/injection, schedule: Q01DX009 (ip), vehicle: saline): 0 of 6
- survivor count (dose: 200.0 mg/kg/injection, schedule: Q01DX009 (ip), vehicle: saline): 0 of 6

Structure (SMILES): Clc1ccc2nc(Cl)c3ccccc3c2c1
- T/C (dose: 1.56 mg/kg/injection, schedule: Q01DX009 (ip), vehicle: Klucel (hydroxypropylcellulose) (HPC)): 126 % of control
- T/C [5]: 130 % of control
- survivor count [5]: 6 of 6
- survivor count (dose: 12.5 mg/kg/injection, schedule: Q01DX009 (ip), vehicle: Klucel (hydroxypropylcellulose) (HPC)): 6 of 6

Structure (SMILES): CCn1c(=O)c2[nH]c(SC)nc2n(CC)c1=O
- survivor count (dose: 400.0 mg/kg/injection, schedule: Q01DX009 (ip), vehicle: Klucel (hydroxypropylcellulose) (HPC)): 0 of 6

Structure (SMILES): CC(C)c1ccc(C(=O)O)cc1
- survivor count (dose: 400.0 mg/kg/injection, schedule: Q01DX009 (ip), vehicle: saline with Tween-80): 5 of 6

Structure (SMILES): C[n+]1ccc2cc(-c3ccccc3)c3ccccc3c2c1
- survivor count (dose: 12.5 mg/kg/injection, schedule: Q01DX009 (ip), vehicle: saline): 6 of 6
- survivor count (dose: 25.0 mg/kg/injection, schedule: Q01DX009 (ip), vehicle: saline): 5 of 6
- survivor count (dose: 50.0 mg/kg/injection, schedule: Q01DX009 (ip), vehicle: saline): 1 of 6

Structure (SMILES): CC(=O)SCC[n+]1cc2ccccc2c2ccccc21
- survivor count [2]: 4 of 5
- survivor count [3]: 0 of 5
